Record: PubChem BioAssay AID602196 (INSERM, 2012)
The deposit covers about 23,000 reagents; this is an unselected part. In the full data, 455 (2%) got an active call. 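Active includes both protection and sensitisation; some change values fall well beyond the stated -50 to +50 range.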 A number with no mark means an inactive call. Further read-outs or replicates are left out here. Reagent sequences are not shown. Not stated in the record: the amount of reagent.

- Aim: 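Knock-downs that protect lung cancer cells from cisplatin or sensitise them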
- Cells: human A549 lung cancer cells
- Knock-down reagent: siRNA pair against human genes
- Time to read-out: 48 h transfection before cisplatin; time from cisplatin to read-out not stated
- Conditions: cisplatin at a dose killing half of control-siRNA cells; exact dose and duration not given
- Detection: 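Cisplatin cell death as a shift from the 50% death seen with control siRNA; siRNAs toxic or growth-blocking alone scored 0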
- Direction: two-siRNA summed score (-2 to +2): higher = both siRNAs protect from cisplatin killing; -2 means both sensitise
- Call rule: 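siRNAs harmful alone (LDH or WST-1) get 0; others get +1 for less and -1 for more cisplatin killing; genes are active when the two siRNAs give the same sign, summing to ±2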
- Calls: active = both siRNAs shift cisplatin killing the same way; inactive = no consistent shift, or siRNA harmful alone

{"target":"PTPA","two-siRNA summed score (-2 to +2)":0}
{"target":"NLRC4","two-siRNA summed score (-2 to +2)":0}
{"target":"LOC387702","two-siRNA summed score (-2 to +2)":1}
{"target":"LOC441237","two-siRNA summed score (-2 to +2)":0}
{"target":"LOC400858","two-siRNA summed score (-2 to +2)":0}
{"target":"ELSPBP1","two-siRNA summed score (-2 to +2)":0}
{"target":"ASTL","two-siRNA summed score (-2 to +2)":1}
{"target":"FASTKD4","two-siRNA summed score (-2 to +2)":1}
{"target":"ATP2B2","two-siRNA summed score (-2 to +2)":1}
{"target":"ZBTB37","two-siRNA summed score (-2 to +2)":0}
{"target":"MRGPRE","two-siRNA summed score (-2 to +2)":0}
{"target":"CCDC28A","two-siRNA summed score (-2 to +2)":0}
{"target":"KRTAP12-1","two-siRNA summed score (-2 to +2)":0}
{"target":"LOC441434","two-siRNA summed score (-2 to +2)":-1}
{"target":"SCRIB","two-siRNA summed score (-2 to +2)":0}
{"target":"GAREM1","two-siRNA summed score (-2 to +2)":0}
{"target":"YIPF7","two-siRNA summed score (-2 to +2)":1}
{"target":"LOC343930","two-siRNA summed score (-2 to +2)":0}
{"target":"OR6X1","two-siRNA summed score (-2 to +2)":0}
{"target":"LOC390614","two-siRNA summed score (-2 to +2)":1}
{"target":"CCDC51","two-siRNA summed score (-2 to +2)":0}
{"target":"UBE2H","two-siRNA summed score (-2 to +2)":0}
{"target":"DENND10P1","two-siRNA summed score (-2 to +2)":0}
{"target":"CPN2","two-siRNA summed score (-2 to +2)":-1}
{"target":"F11-AS1","two-siRNA summed score (-2 to +2)":0}
{"target":"GTF3A","two-siRNA summed score (-2 to +2)":-1}
{"target":"YWHAG","two-siRNA summed score (-2 to +2)":-1}
{"target":"RAPH1","two-siRNA summed score (-2 to +2)":0}
{"target":"LOC400992","two-siRNA summed score (-2 to +2)":1}
{"target":"HCG9","two-siRNA summed score (-2 to +2)":1}
{"target":"ADD3","two-siRNA summed score (-2 to +2)":1}
{"target":"CRACDL","two-siRNA summed score (-2 to +2)":0}
{"target":"IFI35","two-siRNA summed score (-2 to +2)":0}
{"target":"KIF2B","two-siRNA summed score (-2 to +2)":1}
{"target":"GRAMD1A","two-siRNA summed score (-2 to +2)":0}
{"target":"RNF182","two-siRNA summed score (-2 to +2)":0}
{"target":"ANAPC4","two-siRNA summed score (-2 to +2)":0}
{"target":"LOC390217","two-siRNA summed score (-2 to +2)":0}
{"target":"KBTBD11","two-siRNA summed score (-2 to +2)":1}
{"target":"VAX1","two-siRNA summed score (-2 to +2)":0}

Entries listed so far whose gene name starts with F or f (2):
{"target":"FASTKD4","two-siRNA summed score (-2 to +2)":1}
{"target":"F11-AS1","two-siRNA summed score (-2 to +2)":0}
